Counter-ions that a name gives are not always drawn. The name of at least one read-out is uncertain.
Assays:
[1] = Plasma levels of LDA and LD after intravenous LDA-HCl in mice; format: in vivo; details: IV LDA-HCl 20 mg/kg
Experimental: The purpose of this experiment was to determine the plasma levels of LDA and LD following intravenous (IV) and oral (PO) administration of LDA-HCl in CD-1 mice.
CD-1 mice which were prepared for oral administration had to undergo fasting overnight prior to the dosing. The orally treated mice received food only 2 hour post-dosing. The method used to dose orally was oesophagotubage, and the IV mice were injected via a jugular vein under anesthesia (Isoflurane/O2). LDA-HCl solutions were dissolved in citrate buffer and LD/CD solution was prepared according to International Publication No. WO 2010/134074.
Blood samples were collected following the oral and IV dosing at pre-determined time points and plasma levels of LDA and LD were analysed by LC-MS-MS.

[2] = Stability of LDA-HCl 50 mg/ml in citrate or phosphate buffer, 4 days at 37° C., HPLC; format: physicochemical
Experimental: Liquid formulations were prepared by dissolving LDA-HCl, 50 mg/ml in buffer citrate or buffer phosphate at different pH levels (Table 2). The formulations were incubated 4 days at 37° C., their stability was evaluated by HPLC analysis at the end of the fourth day, and the recovery after 4 days at 37° C. was calculated compared to T=0.

[3] = Long term stability of LDA-HCl 200 mg/ml in citric buffer with NAC, 2 weeks at 37° C.; format: physicochemical; details: 200 mg/ml LDA-HCl, 40 mM citric buffer, 0.05% NAC; 14 days at 37° C. vs t0
Experimental: Liquid formulation comprising LDA-HCl in citric buffer was prepared by dissolving 200 mg/ml LDA-HCl in 40 mM citric buffer with 0.05% N-acetylcysteine (NAC) as antioxidant. The formulation was incubated for 2 weeks at 37° C. The stability of LDA after 14 days at 37° C. was evaluated by HPLC analysis, and the recovery calculated compared to t0 (Table 5).

In the case of `N[C@@H](Cc1ccc(O)c(O)c1)C(=O)O` [LD, L-3,4-dihydroxyphenylalanine, reference compound], the “time of Cmax of LD plasma levels” value ([1]; post dosing) is reported as ≤ 12 min.
With `NC(=O)C(N)Cc1ccc(O)c(O)c1` (centres unmarked) [LDA, 2-amino-3-(3,4-dihydroxyphenyl)propanamide] the “time of peak plasma level (Cmax) of LDA” value ([1]; first time point measured) was 12 min.
In the case of `NC(=O)C(N)Cc1ccc(O)c(O)c1` (centres unmarked) [LDA-HCl, 2-amino-3-(3,4-dihydroxyphenyl)propanamide], the “% Recovery after 4 days at 37° C.” value ([2]; Citrate buffer pH 4.1) is reported as 100.2%, the “% Recovery after 4 days at 37° C.” value ([2]; Citrate buffer pH 5.1) is reported as 101.9% and the “% Recovery after 4 days at 37° C.” value ([2]; Phosphate buffer pH 5.7) is reported as “N/A (Precipitated)”. For the same molecule, the “% Recovery after 4 days at 37° C.” value ([2]; Phosphate buffer pH 6.5) was “N/A (Precipitated)”, the “% Recovery after 4 days at 37° C.” value ([2]; Phosphate buffer pH 7.4) was “N/A (Precipitated)” and the “% Recovery” value [3] was 101.67%.

Reference: patent US20170296491A1, “PHARMACEUTICAL COMPOSITIONS COMPRISING LEVODOPA AMIDE AND USES THEREOF” (priority 2015, published 2017)
